Data from article PMC6357452.
Results are given in words; binding and its absence hold for the method and conditions named. In cells and extracts the contact can be indirect. Some binding calls cover weakened binding; strength is not graded here.

By UniProt entry, the sequences of proteins in these tests, tags left out.
UniProt P48431: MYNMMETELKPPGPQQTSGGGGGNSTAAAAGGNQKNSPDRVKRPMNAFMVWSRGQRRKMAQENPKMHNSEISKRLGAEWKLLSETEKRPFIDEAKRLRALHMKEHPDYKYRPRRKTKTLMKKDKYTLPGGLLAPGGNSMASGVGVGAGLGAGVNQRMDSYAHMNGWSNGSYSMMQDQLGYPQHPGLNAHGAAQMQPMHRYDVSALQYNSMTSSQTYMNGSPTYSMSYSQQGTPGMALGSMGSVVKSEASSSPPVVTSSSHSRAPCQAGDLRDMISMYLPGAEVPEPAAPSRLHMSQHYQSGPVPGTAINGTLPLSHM

Target: T1, CDX2 (human (endogenous in AGS)) (UniProt Q99626)
T1 sequence: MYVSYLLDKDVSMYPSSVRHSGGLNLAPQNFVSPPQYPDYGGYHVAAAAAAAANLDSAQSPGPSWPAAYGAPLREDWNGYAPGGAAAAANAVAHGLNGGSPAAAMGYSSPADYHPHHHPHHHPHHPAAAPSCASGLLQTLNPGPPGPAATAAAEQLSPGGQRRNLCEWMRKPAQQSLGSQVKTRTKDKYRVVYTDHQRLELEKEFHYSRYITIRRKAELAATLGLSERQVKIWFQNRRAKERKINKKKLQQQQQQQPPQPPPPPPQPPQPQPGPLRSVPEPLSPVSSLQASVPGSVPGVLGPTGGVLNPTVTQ
Experiment: co-IP; endogenous proteins in AGS cell lysate (Pierce IP Lysis Buffer); rabbit anti-Sox2 mAb and rabbit anti-CDX2 mAb as capture antibodies on protein G magnetic beads; normal rabbit IgG as negative control; western blot of the eluate; the legend calls it cross-linking Co-IP

binding: binds
Substance: SOX2 (from UniProt P48431 1-317)
